Reference: patent publication US20260008818A1, “CYCLIC PEPTIDE OR SALT THEREOF, AND USES THEREOF” (FUJIFILM Corporation, priority 2023, published 2026)
These are yes or no findings as the source states them, for the method shown. Some results given as binding are weak or reduced against the parent protein; the word gives no strength.

Sequences of proteins named here, by UniProt entry; tags and fusion partners are left off. A change or cut given only in a name is not applied to a line headed by its entry. Residues count along the entry.
UniProt P11362, residues 22-376: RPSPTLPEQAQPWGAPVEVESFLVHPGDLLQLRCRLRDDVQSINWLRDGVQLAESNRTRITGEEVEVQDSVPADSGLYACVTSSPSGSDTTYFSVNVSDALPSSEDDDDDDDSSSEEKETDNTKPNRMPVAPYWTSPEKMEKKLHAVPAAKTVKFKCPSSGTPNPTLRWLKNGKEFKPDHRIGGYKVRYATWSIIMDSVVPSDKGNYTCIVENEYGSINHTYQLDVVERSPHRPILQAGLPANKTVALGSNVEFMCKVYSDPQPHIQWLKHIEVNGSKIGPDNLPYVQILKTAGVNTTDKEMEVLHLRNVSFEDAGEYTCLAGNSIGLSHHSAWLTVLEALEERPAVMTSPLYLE
UniProt P22607, residues 23-375: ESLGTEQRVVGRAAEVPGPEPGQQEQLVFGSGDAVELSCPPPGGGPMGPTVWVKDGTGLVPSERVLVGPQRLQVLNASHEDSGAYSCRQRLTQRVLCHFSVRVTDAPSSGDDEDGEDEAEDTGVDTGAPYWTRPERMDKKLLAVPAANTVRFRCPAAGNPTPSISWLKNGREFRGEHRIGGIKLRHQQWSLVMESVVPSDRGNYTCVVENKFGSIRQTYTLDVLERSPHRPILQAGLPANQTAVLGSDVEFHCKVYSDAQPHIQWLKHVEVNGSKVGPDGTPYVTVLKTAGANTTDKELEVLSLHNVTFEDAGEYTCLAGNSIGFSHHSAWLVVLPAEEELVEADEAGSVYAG

Assays:
[1] = biological target: FGFR1 Protein, Human, Recombinant (His Tag) (Sino Biological, 10616-H08H) (human) (UniProt P11362); experiment: SPR, peptide immobilized, 1 umol/L FGFR
[2] = biological target: FGFR3 Protein, Human, Recombinant (ECD, His Tag) (Sino Biological, 16044-H08H) (human) (UniProt P22607); experiment: SPR, peptide immobilized, 1 umol/L FGFR

HCSYERLQFHGHEAPFRVKVKKK (thioether ring (C)-(K(acetyl))) [SEQ ID NO: 382] was tested, and the binding [1] was “binds” and the binding [2] was “binds”.
